From PubChem BioAssay AID540276 (National Center for Advancing Translational Sciences (NCATS), 2011)
Where “and” joins values, the source holds several entries; their conditions need not be identical. Identical values can stand only once. Among all 300,000 compounds or so, about 5,400 (1.8%) were called active. The shares of active, inactive and inconclusive entries below differ from those in the screen. Calls follow the shape of the full dose curve; tested in HEK293 cells. Potencies beside an inconclusive call are fits to weak or partial responses and may not hold up.

assay: qHTS for inhibitors of binding or entry into cells for Marburg Virus; details: Marburg virus pseudotyped entry inhibition, cell reporter; activity change, negative = inhibition: at 37.8 µM (top of the series) unless noted
% is scaled to controls: 0 for no effect and ±100 for the full control effect; potency is read from the fitted curve at half-maximal effect.

For `CCN(CC)CCN(C(=O)Cn1nnc(-c2ccc(C)o2)n1)C(C(=O)NC1CCCC1)c1ccc(F)cc1` (centres undefined), which Potency is on record?
The Potency was inconclusive: 10 µM [inhibitor, partial curve, poor fit].

With `Nc1cccc2cc(S(=O)(=O)O)ccc12` as the molecule, how does the Potency read?
Its Potency is inconclusive: 35.5 µM [inhibitor, single point].

For `N#CC1=C(N)N(c2ccccc2)C2=C(C(=O)CCC2)C1c1ccccc1` (centres undefined), which Potency is on record?
Its Potency is inconclusive: 6.51 µM [activator, partial curve, poor fit].

Which “activity change, negative = inhibition” value does the source give for `Cc1ccc(Cn2cc(S(=O)(=O)c3ccc(C(C)C)cc3)c(=O)c3cc4c(cc32)OCO4)cc1` here?
Its value is inactive: 0.0588%.

With `Cc1ccccc1OCc1nc(-c2ccc(NC(=O)c3ccco3)cc2)no1` as the molecule, how does the Potency read?
The Potency was inconclusive: 22.4 µM [inhibitor, single point].

With `CCc1nc2nc(C)cc(Nc3ccc(Br)cc3F)n2n1` as the molecule, how does the Potency read?
The Potency was inconclusive: 0.0891 µM [activator, partial curve, poor fit].

With `CCOC(=O)N1CCN(c2ccc(C(=O)c3cccc(F)c3)cc2)CC1` as the molecule, how does the Potency read?
The Potency was inconclusive: 29.1 µM [inhibitor, single point].

For `COc1cc2nc(N3CCN(C(=O)C4CCCO4)CC3)nc(N)c2cc1OC` (centres undefined), which Potency is on record?
The Potency was inconclusive: 31.6 µM [inhibitor, full curve, poor fit].

With `CCCC(=O)Nc1ccc(N2CCN(CC)CC2)c(Cl)c1` as the molecule, how does the Potency read?
Its Potency is inconclusive: 17.8 µM [activator, partial curve, poor fit].

For `Cc1oc2ccc(O)c(CN(C)Cc3ccccc3)c2c1C(=O)Nc1cccc(Cl)c1C`, which Potency is on record?
The Potency was inconclusive: 25.1 µM [inhibitor, partial curve, poor fit].

Which Potency does the source give for `Cc1ccc(N2C(=O)c3ccc(C(=O)N4CCN(c5ccccc5F)CC4)cc3C2=O)cc1` here?
Its Potency is “inactive”.

With `Cc1ccc(C2(C)NC(=O)N(CC(=O)N3CCc4ccccc43)C2=O)cc1` (centres undefined) as the molecule, how does the Potency read?
The Potency was inconclusive: 0.355 µM [inhibitor, partial curve, poor fit].

With `COc1ccc(-c2noc(CSc3nnc(Cc4ccccc4)n3-c3cccc(C)c3)n2)cc1OC` as the molecule, how does the Potency read?
The Potency was “inactive and inconclusive: 2.91 µM [inhibitor, partial curve, poor fit]”.

Which “activity change, negative = inhibition” value does the source give for `CCN(CC(=O)Nc1ccc2c(c1)OCCO2)C(=O)/C=C/c1ccc(OC)cc1OC` here?
Its value is inactive: 13.3%.

Which “activity change, negative = inhibition” value does the source give for `O=C(O)CCCC(=O)Nc1nc(-c2ccccc2)cs1` here?
The value was inactive: 7.25% [at 46.1 µM].

For `O=C(Nc1ccccc1)OC1C2CCC1C(N1CCCCC1)CC2` (centres undefined), which Potency is on record?
Its Potency is inconclusive: 4.47 µM [activator, partial curve, poor fit].

For `COc1ccc(C(CC(=O)Nc2cc([N+](=O)[O-])ccc2OC)c2ccccc2)cc1` (centres undefined), which Potency is on record?
The Potency was inconclusive: 0.891 µM [inhibitor, full curve, poor fit].

For `O=C(COc1ccccc1[N+](=O)[O-])Nc1ccccc1N1CCCC1`, which Potency is on record?
The Potency was inconclusive: 14.1 µM [inhibitor, single point].

Which Potency does the source give for `CO/N=C(\C(=O)O)c1csc(NN=C(C)C)n1` here?
The Potency was inconclusive: 22.4 µM [inhibitor, single point].

With `Cc1ccc(NC(=S)NC(=O)C2CCCCC2)c(Br)c1` as the molecule, how does the Potency read?
Its Potency is inconclusive: 2.51 µM [activator, partial curve, poor fit].

With `NS(=O)(=O)c1ccc(CCNc2ccccc2[N+](=O)[O-])cc1` as the molecule, how does the Potency read?
Its Potency is inconclusive: 35.5 µM [inhibitor, single point].

Which Potency does the source give for `O=C(N/N=C\c1ccc(CNS(=O)(=O)c2ccc(Cl)cc2)o1)C(=O)Nc1ccc(Oc2ccccc2)cc1` here?
Its Potency is inconclusive: 11.2 µM [inhibitor, single point].

For `CCN(CC)S(=O)(=O)c1cccc(C(=O)NC(C(=O)Nc2nnc(C3CC3)s2)C(C)C)c1` (centres undefined), which Potency is on record?
Its Potency is inconclusive: 29.1 µM [inhibitor, single point].

Which Potency does the source give for `Cc1cc2cc(CN(Cc3cccs3)C(=S)NCC3CCCO3)c(=O)[nH]c2cc1C` (centres undefined) here?
Its Potency is inconclusive: 11.2 µM [inhibitor, partial curve, poor fit].

With `CC1CN(C)C(C)C/C1=N/Oc1ccccc1[N+](=O)[O-]` (centres undefined) as the molecule, how does the Potency read?
Its Potency is inconclusive: 25.1 µM [inhibitor, single point].

For `Cc1nc2ccccn2c1C(=O)CSc1cccc(Cl)c1`, which Potency is on record?
The Potency was inconclusive: 17.8 µM [inhibitor, partial curve, poor fit].

Which Potency does the source give for `O=C(CSc1nc2ccccc2n1CC(=O)N1CCOCC1)N1CCCC1` here?
Its Potency is inconclusive: 3.98 µM [activator, single point].

For `Cc1ccc(CN2CCSc3ccc(C(=O)NCC(C)c4ccccc4)cc32)cc1` (centres undefined), which Potency is on record?
The Potency was inconclusive: 35.5 µM [inhibitor, single point].

For `CCOCCCn1c(=N)c(C(=O)NCCN2CCOCC2)cc2c(=O)n3cccc(C)c3nc21`, which Potency is on record?
The Potency was inconclusive: 25.9 µM [inhibitor, partial curve, poor fit].

With `CCC(=O)N1c2ccc(S(=O)(=O)NCc3ccc(F)cc3)cc2CC1C` (centres undefined) as the molecule, how does the “activity change, negative = inhibition” value read?
Its value is inactive: -15.7% [at 46.1 µM].

Which Potency does the source give for `COc1cc2c(cc1OC)C(COc1ccc3c(C)cc(=O)oc3c1)N(C(=O)c1cc(Cl)ccc1OC)CC2` (centres undefined) here?
Its Potency is inconclusive: 17.8 µM [inhibitor, single point].

For `CC(C)n1cc(/C=C2\NC(=O)N(c3cccc(Cl)c3)C2=O)c2ccccc21`, which Potency is on record?
Its Potency is inconclusive: 13 µM [inhibitor, single point].

Which Potency does the source give for `OCCNc1cc(-n2nc(-c3ccccc3)cc2-c2ccccc2)ncn1` here?
The Potency was inconclusive: 5.17 µM [inhibitor, partial curve, poor fit].

For `CC1Cc2ccccc2N1C(=O)COC(=O)C1(c2ccccc2F)CCCC1` (centres undefined), which Potency is on record?
Its Potency is inconclusive: 11.2 µM [inhibitor, partial curve, poor fit].

With `COc1cccc(CN(C)C(=O)CCN(c2ccccc2)S(=O)(=O)c2ccc(C)cc2)c1OC` as the molecule, how does the Potency read?
Its Potency is inconclusive: 4.47 µM [inhibitor, single point].

With `CCOC(=O)c1ccc(NC(=S)N2CCCC(C(=O)OCC)C2)cc1` (centres undefined) as the molecule, how does the activity change, negative = inhibition read?
Its activity change, negative = inhibition is inconclusive: 21.3% [activator] [at 46.1 µM].

With `Nc1ccc(Cc2nc3c(ccc4ccccc43)[nH]2)cc1` as the molecule, how does the Potency read?
Its Potency is inconclusive: 29.1 µM [inhibitor, single point].

Which Potency does the source give for `O=C(Nc1ncc(Cc2cccc(Cl)c2Cl)s1)C1CCCO1` (centres undefined) here?
The Potency was inconclusive: 35.5 µM [inhibitor, single point].

Which Potency does the source give for `O=C(c1cc(-c2ccco2)on1)N1CCN(C(c2ccccc2)c2ccccc2)CC1` here?
The Potency was inconclusive: 18.3 µM [inhibitor, single point].

For `COc1ccc2nc3sc(C(=O)N4CCN(C)CC4)cc3cc2c1`, which Potency is on record?
Its Potency is inconclusive: 12.6 µM [activator, partial curve, poor fit].

With `O=C(/C=C/c1ccccc1[N+](=O)[O-])NC1CCCC1` as the molecule, how does the Potency read?
Its Potency is inconclusive: 3.55 µM [activator, single point].

Which Potency does the source give for `CN(C)c1ccc(CNc2ccccn2)cc1` here?
Its Potency is inconclusive: 14.1 µM [activator, single point].

With `Cn1cc(/C=C/C(=O)c2ccccc2)c2ccccc21` as the molecule, how does the Potency read?
The Potency was inconclusive: 11.2 µM [inhibitor, single point].

With `Cc1ccc(S(=O)(=O)NCC(C)n2nc(C)nc2C)cc1` (centres undefined) as the molecule, how does the Potency read?
Its Potency is inconclusive: 35.5 µM [activator, single point].

Which Potency does the source give for `O=C(Nc1ccc(SC(F)(F)F)cc1)c1ccccn1` here?
Its Potency is inconclusive: 3.55 µM [activator, partial curve, poor fit].

With `O=Nc1c2ccc[nH]c-2c2ccc([N+](=O)[O-])cc12` as the molecule, how does the “activity change, negative = inhibition” value read?
Its value is inactive: 11.7% [at 46.1 µM].

Which “activity change, negative = inhibition” value does the source give for `O=C(Nc1ccc2c(c1)OCO2)c1cnccn1` here?
The value was inactive: 26.3% [at 46.1 µM].

Which Potency does the source give for `C=C(c1ccccc1)P(=O)(O)O` here?
Its Potency is inconclusive: 7.31 µM [activator, partial curve, poor fit].

For `COc1ccc(C(=O)NC(=S)Nc2ccccc2[N+](=O)[O-])cc1OC`, which Potency is on record?
Its Potency is inconclusive: 35.5 µM [inhibitor, single point].

With `CCCCCC(=O)N1C[C@@H](O)[C@H](n2cc(C3CC3)nn2)C[C@H]1c1ccccc1` as the molecule, how does the Potency read?
The Potency was inconclusive: 0.0006 µM [activator].

With `CC(=O)c1cnc(SCc2ccc(Cl)cc2)nc1C` as the molecule, how does the Potency read?
Its Potency is inconclusive: 11.2 µM [activator, partial curve, poor fit].

Which Potency does the source give for `CS(=O)(=O)NCCCCCCNS(C)(=O)=O` here?
Its Potency is inconclusive: 5.62 µM [inhibitor, single point].

Which Potency does the source give for `COc1cccc(NC2C=CS(=O)(=O)C2)c1` (centres undefined) here?
The Potency was inconclusive: 1.41 µM [inhibitor, partial curve, poor fit].

For `COc1ccc(S(=O)(=O)N2CCOCC2)cc1NC(=O)C1CCN(S(=O)(=O)c2ccc(Cl)cc2)CC1`, which Potency is on record?
The Potency was inconclusive: 1.26 µM [inhibitor, single point].

Which “activity change, negative = inhibition” value does the source give for `O=C(CSc1nc2ccccc2s1)N/N=C/c1ccco1` here?
The value was inactive: 0%.

With `COc1ccc(CN2CC(=O)N(c3ccc(C)c(C)c3)C2=S)cc1OC` as the molecule, how does the “activity change, negative = inhibition” value read?
Its value is inactive: 13% [at 46.1 µM].

For `O=C(/C=C/c1cccs1)Nc1ccc(N2CCOCC2)c(S(=O)(=O)Nc2ccccc2Cl)c1`, which Potency is on record?
The Potency was inconclusive: 16.4 µM [inhibitor, single point].

Which Potency does the source give for `O=C(Nc1ccc(N2CCCCC2)c(Cl)c1)c1cccnc1` here?
The Potency was active: 1 µM.

Which “activity change, negative = inhibition” value does the source give for `COC(=O)CSc1nc(C)cc(C)c1C#N` here?
The value was inactive: -20.3% [at 46.1 µM].

Which Potency does the source give for `Cc1ccc(N=C(NOCc2ccc(Cl)cc2Cl)c2nonc2N)c(C)c1` here?
The Potency was inconclusive: 18.3 µM [inhibitor, partial curve].

For `CCN1C(=NCc2cccc(C(F)(F)F)c2)NC(c2cccc(C(F)(F)F)c2)C(C(=O)OC)=C1C` (centres undefined), which Potency is on record?
Its Potency is inconclusive: 1.06 µM [inhibitor, partial curve, poor fit].

With `CCn1c(SCC(=O)NC2CC2)nnc1C(C)Oc1ccccc1` (centres undefined) as the molecule, how does the “activity change, negative = inhibition” value read?
The value was inactive: 15.1%.

With `Nc1cccnc1S(=O)(=O)c1cccc(C(F)(F)F)c1` as the molecule, how does the “activity change, negative = inhibition” value read?
The value was inactive: 5.71% [at 46.1 µM].

Which Potency does the source give for `CCc1ccc(CN2CCCC(CNS(=O)(=O)c3ccc(OC)cc3)C2)cc1` (centres undefined) here?
Its Potency is inconclusive: 25.1 µM [inhibitor, single point].
